PubChem BioAssay AID1259424, University of Nebraska Medical Center | 2018
Screen: 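Rank knockdowns across the genome by resemblance to the KSR1 depletion profile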 (primary screen). Cell system: human HCT116 colon cancer cells. Reagent: siRNA pool against human genes, 50 nM. Detection: 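Log2 levels of six mRNAs (branched-DNA multiplex), adjusted by two reference genes and the non-targeting median, then scored against the average KSR1 knockdown pattern as Pearson r and euclidean distance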. Reading the numbers: mean correlation with KSR1 profile: higher = expression change more like KSR1 knockdown; mean distance from KSR1 profile: higher = expression change less like KSR1 knockdown.
This is a random part of about 14,000 deposited reagents. 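Higher correlation or smaller distance means closer resemblance to KSR1 loss; control wells, including KSR1 knockdowns, recur on many plates.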 Not all columns of the deposit are shown. Not stated in the record: the time to read-out.

For RASSF2 (GeneID 9770), what was measured?
mean correlation with KSR1 profile: -0.182; mean distance from KSR1 profile: 3.17

What is on record for ZNF691 (GeneID 51058)?
mean correlation with KSR1 profile: -0.746; mean distance from KSR1 profile: 2.07

How did the screen score BOP1 (GeneID 23246)?
mean correlation with KSR1 profile: -0.489; mean distance from KSR1 profile: 4.92

For GPRIN2 (GeneID 9721), what was measured?
mean correlation with KSR1 profile: 0.389; mean distance from KSR1 profile: 1.28

With KDM5C (GeneID 8242), what was measured?
mean correlation with KSR1 profile: 0.261; mean distance from KSR1 profile: 2.37

How did the screen score JADE2 (GeneID 23338)?
mean correlation with KSR1 profile: -0.745; mean distance from KSR1 profile: 3.03

Which result is listed for HOPX (GeneID 84525)?
mean correlation with KSR1 profile: 0.198; mean distance from KSR1 profile: 1.62

Which result is listed for RHPN1-AS1 (GeneID 78998)?
mean correlation with KSR1 profile: -0.0628; mean distance from KSR1 profile: 1.96

Which result is listed for RECQL4 (GeneID 9401)?
mean correlation with KSR1 profile: 0.312; mean distance from KSR1 profile: 1.63

Which result is listed for PSG1 (GeneID 5669)?
mean correlation with KSR1 profile: 0.47; mean distance from KSR1 profile: 1.4

For FCRL1 (GeneID 115350), what was measured?
mean correlation with KSR1 profile: 0.0414; mean distance from KSR1 profile: 1.52

How did the screen score LDHC (GeneID 3948)?
mean correlation with KSR1 profile: 0.831; mean distance from KSR1 profile: 1.83

For IL17RB (GeneID 55540), what was measured?
mean correlation with KSR1 profile: 0.744; mean distance from KSR1 profile: 1.07

For DHRS4 (GeneID 10901), what was measured?
mean correlation with KSR1 profile: -0.273; mean distance from KSR1 profile: 1.99

Which result is listed for MUC5B (GeneID 727897)?
mean correlation with KSR1 profile: 0.597; mean distance from KSR1 profile: 2.04

What did the screen give for CLCN1 (GeneID 1180)?
mean correlation with KSR1 profile: -0.599; mean distance from KSR1 profile: 3.56

Which result is listed for MAGEB4 (GeneID 4115)?
mean correlation with KSR1 profile: -0.713; mean distance from KSR1 profile: 2.99

Which result is listed for FCGRT (GeneID 2217)?
mean correlation with KSR1 profile: 0.385; mean distance from KSR1 profile: 1.28

With PRUNE1 (GeneID 58497), how do the results read?
mean correlation with KSR1 profile: -0.335; mean distance from KSR1 profile: 3.7

How did the screen score PABPN1 (GeneID 8106)?
mean correlation with KSR1 profile: -0.331; mean distance from KSR1 profile: 1.91

What did the screen give for C8A (GeneID 731)?
mean correlation with KSR1 profile: -0.491; mean distance from KSR1 profile: 1.93

With HINFP (GeneID 25988), what was measured?
mean correlation with KSR1 profile: 0.624; mean distance from KSR1 profile: 1.09

What did the screen give for ACAD9 (GeneID 28976)?
mean correlation with KSR1 profile: 0.258; mean distance from KSR1 profile: 1.09

Which result is listed for NAP1L2 (GeneID 4674)?
mean correlation with KSR1 profile: 0.253; mean distance from KSR1 profile: 0.978

How did the screen score DCP1A (GeneID 55802)?
mean correlation with KSR1 profile: -0.457; mean distance from KSR1 profile: 1.86

With UBE2V1 (GeneID 7335), what was measured?
mean correlation with KSR1 profile: -0.543; mean distance from KSR1 profile: 2.11

Which result is listed for STK39 (GeneID 27347)?
mean correlation with KSR1 profile: -0.861; mean distance from KSR1 profile: 2.36

For USP38 (GeneID 84640), what was measured?
mean correlation with KSR1 profile: -0.516; mean distance from KSR1 profile: 1.84

Reformatted: entries from further up.
PSG1 (GeneID 5669)
- mean correlation with KSR1 profile: 0.47
- mean distance from KSR1 profile: 1.4

FCRL1 (GeneID 115350)
- mean correlation with KSR1 profile: 0.0414
- mean distance from KSR1 profile: 1.52
